Assay results taken from patent US20120100074A1 (Teva, published 2012).
No constants are given. Whether binding was seen depends on the method and setting. Some binding calls cover weakened binding; strength is not graded here.

By UniProt entry, the sequences of proteins in these tests, tags left out. Residues count along the entry.
UniProt O43557, residues 83-240: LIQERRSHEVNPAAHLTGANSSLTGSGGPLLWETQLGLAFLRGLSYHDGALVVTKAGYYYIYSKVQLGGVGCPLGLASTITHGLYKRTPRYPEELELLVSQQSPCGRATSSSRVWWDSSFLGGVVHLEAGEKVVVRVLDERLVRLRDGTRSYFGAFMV

target: LIGHT (TNFSF14), recombinant soluble protein (human) (UniProt O43557); experiment: binding assays (direct binding ELISA screen)

Row | binding | Binder
1 | binds | murine anti-LIGHT monoclonal antibody 14G8 (antibody, V domains shown) VH: QVQLQQSGAELVRPGTSVQVSCKASGYSFTTYLIEWIKQRPGQGLEWIGVINPGTGETKYNENFRAKAIMTADKYSSTAYMQLSSLTADDSAVYFCARWDRWGQGTTLTVSS VL: DVVMTQAPLSLPVSLGDQVSISCRSSQNLVHSNGNTYFHWYLQKPGQSPELLIYKVSNRFSGVPDRFSGSGSGTDFTLKISRVEAEDLGVYFCSQSTHVPYTFGGGTKLEIKR
2 | binds | murine anti-LIGHT monoclonal antibody 18B1 (antibody, V domains shown) VH: QVQLQQPGAELVRPGTSVKLSCKASGYSFTTYWMNWVKQRPGQDLEWIGMIHPSDSESRLNQKFIDKATLSADKSSSTAYMLLNSPTSEDSAVYYCAFGNYVWAMDYWGQGTSVTVSS VL: DIVLTQSPASLVVSLGQRATISCRASKSVSTSGYTYMHWYQQKPGQPPKLLIYITSNLESGVPARFSGSGSGTDFTLNIHPVEEEDAATYYCQHSRELPYTFGGGTKLEIKR

Second part, the binder before the results:

Row | Binder | binding
3 | murine anti-LIGHT monoclonal antibody 13C7 (antibody, V domains shown) VH: QVQLQQSGAELVRPGTSVRVSCKASGYAFTNYLIEWIKQRPGQGLEWIGVINPGSGDTKYNENFKGKATLTADISSSTAYLQLSSLTSDDSAVYFCAGWNYWGQGTTLTVSS VL: DVVMTQTPLSLPVSLGDQASISCRSSQSLLHSNGNTYFHWYLQKPGQSPELLIYKVSNRFSGVPDRFSGSGSGTDFTLKISRVEAEDLGVYFCSQSTHVPYTFGGGTKLEIKR | binds
4 | murine anti-LIGHT monoclonal antibody 10D11 (antibody, V domains shown, Mouse hybridoma monoclonal antibody; also called m10D11; mD10D11) VH: EIQLQQSGPDLVKPGASVKVSCKASGYSFTDYYIYWVRQSHGKSLEWIGYIDPYNGGTKYNQKFKDTASLTVDKSSSTAFMHLNSLTSEDSAVYYCARTSGSSWFPYWGQGTLVTVSA VL: DIVLTQSPATLSVTPGDSVSLSCRASQSISNNLHWYQQKSHESPRLLIKYTYQSISGIPSRFSGSGSGTDFTLTINSVETEDFGMYFCQQSNRWPLTFGAGTKLELKR | binds
5 | murine anti-LIGHT monoclonal antibody 5E10 (antibody, V domains shown) VH: QVQLQQSGPELVKPGASVKISCKASGYSFTSYYIHWVKQRPGQGLEWIGWIFPGSDITKYNEKFKGKATLTADTSSSTAYMQLSSLTSEDSTVYFCTREDYGISTYSAMDFWGQGTSVTVSS VL: DIVMTQSHKFMSTSVGDRVSITCKASQDVGTAVAWYQQKPGQSPKLLIYWASTRHTGVPDRFTGSGSGPDFTLTISNVQSEDLADYFCQQYSSYPLTFGSGTKLEIKR | binds
